Data: patent US8399455B2, “Compounds useful as chemokine receptor antagonists” (Millennium Pharmaceuticals, Inc., priority 2004, dated 2013)
Some entries share one result that the patent states for a list of compounds.

What follows are compounds tested against T1, CCR1 (Homo sapiens, UniProt P32246) (assay: CCR1 inhibition in THP-1 cells (THP-1 FLIPR assay, RANTES induced calcium flux, and/or THP-1 whole cell radioligand binding assay, [125I]-MIP-1α; the patent does not say which gave the values)). Conditions: THP-1 cells endogenously expressing CCR1; assay (FLIPR or binding) and parameter not specified.
T1 construct: a monocytic derived cell line that endogenously expresses CCR1; host or cells: THP-1 cells
T1 sequence (P32246 1-355): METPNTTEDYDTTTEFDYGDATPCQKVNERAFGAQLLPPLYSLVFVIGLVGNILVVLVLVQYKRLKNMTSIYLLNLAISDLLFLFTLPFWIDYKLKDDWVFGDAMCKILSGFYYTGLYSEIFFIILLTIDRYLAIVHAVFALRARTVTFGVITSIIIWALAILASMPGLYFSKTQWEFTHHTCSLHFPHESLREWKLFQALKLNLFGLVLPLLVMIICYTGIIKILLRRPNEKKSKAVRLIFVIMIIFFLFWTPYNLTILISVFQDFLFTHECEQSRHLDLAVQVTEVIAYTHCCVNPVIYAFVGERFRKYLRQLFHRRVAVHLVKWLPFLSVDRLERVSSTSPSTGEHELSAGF
Type: cell-based

activity, less than 1 μM:
COc1cc(C(=O)N2C[C@H](O)[C@@H](N3CCN(C(=O)c4ccc(Cl)cc4)CC3)C2)ccc1F (stereo in doubt) [Compound 165, 4-{4-[(4-chlorophenyl)carbonyl]piperazin-1-yl}-1-{[4-fluoro-3-(methyloxy)phenyl]-carbonyl}-pyrrolidin-3-ol]
CN(C(=O)CN1CCN([C@H]2CN(C(=O)c3ccc(Cl)cc3)C[C@@H]2O)CC1)c1ccccc1 (stereo in doubt) [Compound 139, 2-{4-[1-(4-chlorobenzoyl)-4-hydroxypyrrolidin-3-yl]piperazin-1-yl}-N-methyl-N-phenylacetamide]
O=C(c1ccc(Cl)cc1)N1CCN([C@H]2CN(C(=O)c3cc(Br)c(Br)s3)C[C@@H]2O)CC1 (stereo in doubt) [Compound 206, 4-[4-(4-chlorobenzoyl)piperazin-1-yl]-1-[(4,5-dibromo-2-thienyl)carbonyl]pyrrolidin-3-ol]
O=C(c1ccc(Cl)cc1)N1C[C@H](O)[C@@H](N2CCN(C(=O)c3ccccc3-c3ccccc3)CC2)C1 (stereo in doubt) [Compound 137, 4-[4-(biphenyl-2-ylcarbonyl)piperazin-1-yl]-1-(4-chlorobenzoyl)pyrrolidin-3-ol]
COc1cc(C(=O)N2CC(O)[C@@H](N3CCN(Cc4ccc(Cl)cc4)CC3)C2)ccc1F (stereo partly drawn) [Compound 167, (4S)-4-{4-[(4-chlorophenyl)methyl]piperazin-1-yl}-1-{[4-fluoro-3-(methyloxy)phenyl]-carbonyl}pyrrolidin-3-ol]
O=C(c1ccc(Cl)cc1)N1CCN([C@@H]2CN(C(=O)c3ccc(F)c4ccccc34)C[C@H]2O)CC1 (stereo in doubt) [Compound 13, 4-[4-(4-chlorobenzoyl)piperazin-1-yl]-1-(4-fluoro-1-naphthoyl)pyrrolidin-3-ol]
Cc1cc(C(=O)N2C[C@@H](O)[C@H](N3CCN(C(=O)c4ccc(Cl)cc4)CC3)C2)ccc1Br (stereo in doubt) [Compound 39, 1-(4-bromo-3-methylbenzoyl)-4-[4-(4-chlorobenzoyl)piperazin-1-yl]pyrrolidin-3-ol]
O=C(c1ccc(Cl)cc1)N1C[C@H](O)[C@@H](N2CCN(c3nccc(-c4ccccc4)n3)CC2)C1 (stereo in doubt) [Compound 176, 1-[(4-chlorophenyl)carbonyl]-4-[4-(4-phenyl-pyrimidin-2-yl)piperazin-1-yl]pyrrolidin-3-ol]
Cc1cc(C(=O)N2CC(O)[C@@H](N3CCN(Cc4ccc(Cl)cc4)CC3)C2)ccc1F (stereo partly drawn) [Compound 166, (4S)-4-{4-[(4-chlorophenyl)methyl]piperazin-1-yl}-1-[(4-fluoro-3-methylphenyl)-carbonyl]-pyrrolidin-3-ol]
O=C(c1ccc(Br)cc1)N1CCN([C@H]2CN(C(=O)c3ccc(Cl)cc3)C[C@@H]2O)CC1 (stereo in doubt) [Compound 21, 4-[4-(4-bromobenzoyl)piperazin-1-yl]-1-(4-chlorobenzoyl)pyrrolidin-3-ol]
O=C(O)c1cc(Cl)c(Cl)cc1C(=O)N1C[C@@H](O)[C@H](N2CCN(Cc3ccc(Cl)cc3)CC2)C1 (stereo in doubt) [Compound 170, 4,5-dichloro-2-[(3-{4-[(4-chlorophenyl)-methyl]piperazin-1-yl}-4-hydroxypyrrolidin-1-yl)carbonyl]benzoic acid]
O=C(c1ccc(Cl)cc1)N1C[C@@H](O)[C@H](N2CCN(Cc3ccc(Cl)cc3)CC2)C1 (stereo in doubt) [Compound 2, 1-(4-chlorobenzoyl)-4-[4-(4-chlorobenzyl)piperazin-1-yl]pyrrolidin-3-ol]
Cc1c(C(=O)N2C[C@H](O)[C@@H](N3CCN(C(=O)c4ccc(Cl)cc4)CC3)C2)oc2ccccc12 (stereo in doubt) [Compound 200, 4-[4-(4-chlorobenzoyl)piperazin-1-yl]-1-[(3-methyl-1-benzofuran-2-yl)carbonyl]pyrrolidin-3-ol]
O=C(c1ccc(Cl)cc1)N1CCN([C@@H]2CN(C(=O)c3ccccc3Nc3ccccc3)C[C@H]2O)CC1 (stereo in doubt) [Compound 16, 1-(2-anilinobenzoyl)-4-[4-(4-chlorobenzoyl)piperazin-1-yl]pyrrolidin-3-ol]
O=C(c1ccc(Cl)cc1)N1C[C@@H](O)[C@H](N2CCC(Nc3ccc(F)cc3)CC2)C1 (stereo in doubt) [Compound 41, 1-(4-chlorobenzoyl)-4-{4-[(4-fluorophenyl)-amino]piperidin-1-yl}pyrrolidin-3-ol]
O=C(c1ccc(Br)c(F)c1)N1C[C@@H](O)[C@H](N2CCN(Cc3ccc(Cl)cc3)CC2)C1 (stereo in doubt) [Compound 150, 1-[(4-bromo-3-fluorophenyl)carbonyl]-4-{4-[(4-chlorophenyl)methyl]piperazin-1-yl}-pyrrolidin-3-ol]
O=C(c1ccc(Cl)cc1)N1C[C@H](O)[C@@H](N2CCN(c3cnccn3)CC2)C1 (stereo in doubt) [Compound 138, 1-(4-chlorobenzoyl)-4-(4-pyrazin-2-ylpiperazin-1-yl)pyrrolidin-3-ol]
O=C(c1ccc(Cl)cc1)N1CCN([C@@H]2CN(C(=O)c3cc4ccccc4[nH]3)C[C@H]2O)CC1 (stereo in doubt) [Compound 105, 4-[4-(4-chlorobenzoyl)piperazin-1-yl]-1-(1H-indol-2-ylcarbonyl)pyrrolidin-3-ol]
Cc1cc(C(=O)N2C[C@H](O)[C@@H](N3CCN(C(=O)c4ccc(Cl)cc4)CC3)C2)ccc1F (stereo in doubt) [Compound 164, 4-{4-[(4-chlorophenyl)carbonyl]piperazin-1-yl}-1-[(4-fluoro-3-methylphenyl)carbonyl]-pyrrolidin-3-ol]
O=C(c1ccc(Cl)cc1)N1CCN([C@H]2CN(C(=O)c3ccc(Cl)s3)C[C@@H]2O)CC1 (stereo in doubt) [Compound 204, 4-[4-(4-chlorobenzoyl)piperazin-1-yl]-1-[(5-chloro-2-thienyl)carbonyl]pyrrolidin-3-ol]
O=C(c1ccc(Cl)cc1)N1CCN([C@@H]2CN(C(=O)c3ccccc3Oc3ccccc3)C[C@H]2O)CC1 (stereo in doubt) [Compound 15, 4-[4-(4-chlorobenzoyl)piperazin-1-yl]-1-(2-phenoxybenzoyl)pyrrolidin-3-ol]
O=C(c1ccc(Cl)cc1)N1CCN([C@H]2CN(C(=O)c3ccc(Br)s3)C[C@@H]2O)CC1 (stereo in doubt) [Compound 203, 1-[(5-bromo-2-thienyl)carbonyl]-4-[4-(4-chlorobenzoyl)piperazin-1-yl]pyrrolidin-3-ol]
O=C(c1ccc(Cl)cc1)N1C[C@H](O)[C@@H](N2CCN(c3ccc(C(F)(F)F)cc3)CC2)C1 (stereo in doubt) [Compound 27, 1-(4-chlorobenzoyl)-4-{4-[4-(trifluoromethyl)-phenyl]piperazin-1-yl}pyrrolidin-3-ol]
O=C(c1ccc(F)c(F)c1)N1CCN([C@H]2CN(C(=O)c3ccc(Cl)cc3)C[C@@H]2O)CC1 (stereo in doubt) [Compound 136, 1-(4-chlorobenzoyl)-4-[4-(3,4-difluorobenzoyl)piperazin-1-yl]pyrrolidin-3-ol]
O=C(c1ccccc1Nc1ccccc1)N1C[C@@H](O)[C@H](N2CCN(Cc3ccc(Cl)cc3)CC2)C1 (stereo in doubt) [Compound 12, 1-(2-anilinobenzoyl)-4-[4-(4-chlorobenzyl)-piperazin-1-yl]pyrrolidin-3-ol]
O=C(c1ccc(Cl)cc1)N1C[C@H](O)[C@@H](N2CCN(c3nc(C(F)(F)F)nc4ccccc34)CC2)C1 (stereo in doubt) [Compound 181, 1-[(4-chlorophenyl)carbonyl]-4-{4-[2-(trifluoromethyl)quinazolin-4-yl]piperazin-1-yl}pyrrolidin-3-ol]
O=C(c1ccc(Cl)cc1)N1CCN([C@H]2CN(C(=O)c3sc(Cl)c(Cl)c3Cl)C[C@@H]2O)CC1 [Compound 208]
O=C(c1ccc(F)c2ccccc12)N1C[C@@H](O)[C@H](N2CCN(Cc3ccc(Cl)cc3)CC2)C1 (stereo in doubt) [Compound 11, 4-[4-(4-chlorobenzyl)piperazin-1-yl]-1-(4-fluoro-1-naphthoyl)pyrrolidin-3-ol]
O=C(c1ccc(Cl)cc1)N1C[C@H](O)[C@@H](N2CCN(C(=O)c3ccc(F)c4ccccc34)CC2)C1 (stereo in doubt) [Compound 43, 1-(4-chlorobenzoyl)-4-[4-(4-fluoro-1-naphthoyl)piperazin-1-yl]pyrrolidin-3-ol]
O=C(c1ccc(Cl)cc1)N1C[C@@H](O)[C@H](N2CCN(c3nccc4cc(Cl)ccc34)CC2)C1 (stereo in doubt) [Compound 160, 4-[4-(6-chloroisoquinolin-1-yl)piperazin-1-yl]-1-[(4-chlorophenyl)carbonyl]pyrrolidin-3-ol]
C[C@@H]1CN(C(=O)c2ccc(Cl)cc2)CCN1C1CN(C(=O)c2ccc(Cl)cc2)CC1O (stereo partly drawn) [Compound 30, 1-(4-chlorobenzoyl)-4-[(2R)-4-(4-chloro-benzoyl)-2-methylpiperazin-1-yl]pyrrolidin-3-ol]
